Values quoted from earlier work as cited in publication PMC9405973, “Altered Conformational Landscape upon Sensing Guanine Nucleotides in a Disease Mutant of Elongation Factor-like 1 (EFL1) GTPase” (Biomolecules, 2022).

System: wild-type Efl1•Sdo1
Design: method as in PMID 30780079
Conditions: −Mg^2+, 30 °C; cited from earlier work

| Compound | Nconfres (number of residues changing conformation, absolute value) | Nconfrotb (number of routable bonds changing conformation, absolute value) | ΔCpconf | ΔCprb | ΔSb | ΔSconf | ΔSsolv | −ΔASAconf |
| --- | --- | --- | --- | --- | --- | --- | --- | --- |
| Nc1nc2c(ncn2[C@@H]2O[C@H](COP(=O)(O)OP(=O)(O)O)[C@@H](O)[C@H]2O)c(=O)[nH]1 [GDP] | 58 | 96 | −610 cal mol^−1 K^−1 | −30 (−30) cal mol^−1 K^−1 | −5 cal mol^−1 K^−1 | −161 cal mol^−1 K^−1 | 164 cal mol^−1 K^−1 | 2738 Å^2 |
| Nc1nc2c(ncn2[C@@H]2O[C@H](COP(=O)(O)OP(=O)(O)OP(=O)(O)O)[C@@H](O)[C@H]2O)c(=O)[nH]1 [GTP] | 8 | 0 | −79 cal mol^−1 K^−1 | −11 (−11) cal mol^−1 K^−1 | 16 cal mol^−1 K^−1 | 0 cal mol^−1 K^−1 | 23 cal mol^−1 K^−1 | 355 Å^2 |
